# Measurements as given in PubChem BioAssay AID1347423 (Functional Genomics Laboratory (NCATS/FGL), 2020).
# Screen size: about 52,000 sequences; about 210 (0.4%) were called active.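 The calls were made as follows: active = gene whose silencing raises cell survival under the drug, median off-target-corrected z-score across its silencing RNAs 2 or more; inactive = the rest.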 This is one part of the list.
# Experiment: Resistance to Poly (ADP-Ribose) Polymerase inhibitor: Gene Identification via Genome-wide siRNA Screen
# Settings: mouse BRCA2 R2336H ES cells, olaparib, CellTiter-Glo viability; stronger effect = higher value
# Procedure, shortened: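 Mouse BRCA2 R2336H ES cells were reverse-transfected with siRNA (20 nM final), treated at 48 h with 500 nM olaparib, and read by CellTiter-Glo after 72 h. Scores: MAD-based z per siRNA, median per gene, seed off-target correction.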
row,Sequence,z-score
1,GCUACCUACUCAACAUUGCTT against Trim32,inactive: 0.054
2,GGGACCACAGCACUGGUUUTT against Cox6a1,inactive: -0.975
3,CCAAUAAGUGACCUUUUUUTT against 9930019B18Rik,inactive: -0.65
4,GGUAUUUUGGUGGACGGGUTT against Rbm17,inactive: -1.29
5,GGAUCUUGAAGACCAAAAATT against 9030409G11Rik,inactive: -0.527
6,GCUGUUGUAACCAUAACAGTT against Ntsr1,inactive: 0.932
7,GCACUGGAAAAUUUCUAAUTT against 4933425M15Rik,inactive: 0.24
8,GGAGAUCAAGAACUACGUCTT against Mrpl12,inactive: 1.88
9,GGAAGAUGGUAUUCCAUAUTT against Dmc1h,inactive: 1.25
10,GCACAUCAUUUAUCAGACATT against Ramp3,inactive: -0.178
11,GCCUCAAGGCAUUGGCAAGTT against LOC545475,inactive: -0.616
12,CCCUAAUAGAACUAAUGAATT against Kpnb1,inactive: -3.47
13,CCAGUUGAAUUAGAAUCCATT against Ctns,inactive: 1.51
14,GGCCUUGCACUUCAGUUUCTT against AI317395,inactive: 0.855
15,GGGACUUCAAAGCAGGUAGTT against Alx3,inactive: -0.527
16,CCUCCUGACUUGGAUAGAGTT against Agt,inactive: 1.06
17,CGUGAACCGCCAGAAUGCUTT against Cdh5,inactive: -0.228
18,GGACCAUAUGAACUUUAUUTT against Xpo7,inactive: -0.659
19,GGAAGACAAAUCAGAAAGUTT against 9530046H09Rik,inactive: 0.314
20,GGAAGAGGACACAUUAGGCTT against 2410116G06Rik,inactive: 0.394
21,GGGAAGAUCUUCAAGAAGGTT against Pa2g4,inactive: 0.217
22,GCAUCUGAUCUACCAGUCGTT against BC012016,inactive: 0.309
23,GGCAACAGCCCAGAAAUUCTT against D930047P17Rik,inactive: 0.0872
24,GGAUAAAGGCAAAGACAAATT against 1200013F24Rik,inactive: -1.33
25,GGAUUAGGAAUUCUUGUGUTT against 1810049H13Rik,inactive: 0.168
26,GGUGAUAUGUGUGGGCUUGTT against B430104H02Rik,inactive: -1.44

# Not a retest: an excerpt of the list.
row,Sequence,z-score
3,CCAAUAAGUGACCUUUUUUTT against 9930019B18Rik,inactive: -0.65
4,GGUAUUUUGGUGGACGGGUTT against Rbm17,inactive: -1.29

# (listing goes on)

row,Sequence,z-score
1,GGUCUUCGAAGCUACGAUATT against Edem1,inactive: 0.482
2,GGAGUCUCCAAUGAAAUGUTT against Kcnma1,inactive: 1.49
3,GGAGCAACAGAGAUUUCUUTT against Gnefr,inactive: -0.971
4,GGGCAAUAAGAUGUACGUUTT against Eomes,inactive: 0.885
5,GGACUACGUAUUUUCCCUGTT against Cyc1,inactive: 0.324
6,GGAGACAGGGUUUUUCCUGTT against Tap1,inactive: 0.715
7,GGUUUCUUUUCCUCUGGGCTT against Gata1,inactive: -0.507
8,GGACAUGCAUCUUGUUUUCTT against Olfr1307,inactive: 0.906
9,GGGAAAAGUUUUGGAAAAUTT against Hps5,inactive: -0.23
10,GCCACGAGAAGUGAACCAATT against 9430023P16Rik,inactive: -2.36
11,GGAUAAGAAGACCUGCAUCTT against Gng12,inactive: 0.275
12,GGCCAAAGAAGAAUCUCCUTT against Aebp2,inactive: -0.69
13,GGUGUACGAUGCAGUACCCTT against Slamf8,inactive: 0.298
14,GGUUGUACGAUUAUAAAGGTT against Arih2,inactive: 1.57
15,GGCUAUGAAGACUGGGUUUTT against 4933413B09Rik,inactive: -1.34
16,GGUAAUGGCUCACUUAAUATT against Malt1,inactive: -1.4
17,GCUGUCAUGGGAAAAAUUGTT against Olfr729,inactive: 0.689
18,GGAACAGAUGGGUGUGAAATT against Wnt2b,inactive: -2.7
19,CGACCAGCUUCUAGUGCUUTT against Pcdha8,inactive: -1.64
20,GGGUAGCUCAGAAAGGUUATT against 7530404M11Rik,inactive: 0.188
21,CCAGGAAUUACUACGUCCGTT against Cyba,inactive: -0.51
22,GGGAUGUUCUUCAAUCCUGTT against Nedl2,inactive: 2.39
23,CCUUUGAUUGACAGAAAGATT against Etv5,inactive: 0.835
24,GGGAACAUUUAUCCCUGUGTT against Olfr480,inactive: -0.0358
25,CCUUCUUUGUUCCAUAAGATT against Hapln2,inactive: 0.826
26,GGUCAGAGGUCGACCUAUUTT against Oas1h,inactive: -0.863

row,Sequence,z-score
1,GGCCCUCAUCAUAAAUGCUTT against Dctn6,inactive: -1.9
2,GCUCCAGAGUUCGUCUUUGTT against Zfp64,inactive: -2.31
3,AGUACCCAUAUCAACGAAGTT against Olfr926,inactive: -1.02
4,GGUGUCUCUGAUGAAUCACTT against Syt15,inactive: 1.21
5,CCAAGAAUGCCCAGCAAGUTT against E4f1,inactive: 0.559
6,GGAGGUCACUCUUAUCCACTT against Amid,inactive: 0.435
7,CGGGAGGUGAAUAUCGAUUTT against 6530413N01Rik,inactive: -1.05
8,CCUACAUUCACCAAAAGGUTT against Usp9y,inactive: 0.561
9,GGAAAACAGGCAGGACUUCTT against D930020B18Rik,inactive: 0.0852
10,GGAUUCGUAAACUUCAGAUTT against Igf2bp3,inactive: -0.353
11,GGAGGAACAGCAGAGAAGUTT against LOC230872,inactive: 0.239
12,GCGAGUGUAUGCUUGAGAATT against Hspa12b,inactive: 0.0912
13,GGUGCUCCGAACAAGUUGATT against 2010110K16Rik,inactive: 1.12
14,GCUACUACACGCAAGAUUUTT against Tex13,inactive: -0.139
15,GGCUACCAAGUGUACCAUUTT against Syt15,inactive: -1.14
16,GGUGCUUUUUUUGGAUCAATT against Olfr507,inactive: -0.843
17,GGACAAUUGAAAACUGCCUTT against Gpd1,inactive: 1.88
18,GGAAAUGAUCUCUUUUGGATT against Bbs2,inactive: 0.41
19,GCGAACCGAGAGUCUAUACTT against 4631402N15Rik,inactive: -1.04
20,GGUGGUGAUUCACCUCCAATT against Tnfrsf12a,inactive: -0.839
21,GGAAAAAGAUAGAACCAGATT against 1700108L22Rik,inactive: -0.213
22,CGUUAACCACAGUGAGAGATT against Pvrl4,inactive: 1.07
23,GCAUCGAAUGUUUGAACCCTT against Gstm6,inactive: -1.42
24,CCAGGUCUAAAAGUAACAATT against Unc13b,inactive: 0.327
25,CCAGAUUAUCCGUUUAAACTT against Ube2e2,inactive: -0.251
26,CCAGCAUGCAUCCAUUCUUTT against Mageb3,inactive: -1.59

# 5 records drawn at random from those above, as already listed:
row,Sequence,z-score
15,GGCUACCAAGUGUACCAUUTT against Syt15,inactive: -1.14
5,CCAAGAAUGCCCAGCAAGUTT against E4f1,inactive: 0.559
24,CCAGGUCUAAAAGUAACAATT against Unc13b,inactive: 0.327
20,GGUGGUGAUUCACCUCCAATT against Tnfrsf12a,inactive: -0.839
7,CGGGAGGUGAAUAUCGAUUTT against 6530413N01Rik,inactive: -1.05

# Continuation.

row,Sequence,z-score
1,GGAACGAGGAGUCAAUAGATT against 1110006O17Rik,inactive: 1.4
2,GGAGAGGAGUUGGAUAGAUTT against Mobp,inactive: -0.762
3,GGCUUUAUAUCAAGAUUUGTT against Lrrc2,inactive: -0.658
4,GGCUUCAGCUAACCAAGCUTT against Adat1,inactive: 0.239
5,GGGAUGAAAAAAUUGGAUATT against Chd1,inactive: -0.311
6,GGGAGGGAUGCAGUAAAUGTT against Acaa1,inactive: -1.58
7,CCCUCCAGCACUUGUUACATT against 4732427B05,inactive: -2.04
8,GGACCUGGUAUCUCUAUAUTT against Rasgrp4,inactive: -0.16
9,GGGAGUUCUGCUUUAUUGCTT against Bst2,inactive: -0.0443
10,GGAAGUUUAUGAUGAUGUCTT against 2610317D23Rik,inactive: -0.802
11,GGAGACACUGAACAUCUUATT against Kctd13,inactive: 0.744
12,CCUUAAUCGCAUCAAAUUATT against Slc1a3,inactive: 1.24
13,CCAACUUUCUCUUAGGAAATT against Gm580,inactive: 0.9
14,GGAGAUGUUGUUUGCUACUTT against D16H22S680E,inactive: 0.407
15,GGGCUCAAGGUUAUUAAUGTT against Gjb1,inactive: 2.72
16,GGCUUAGGUGUCCGAGAAATT against Wfdc2,inactive: -1.26
17,GCUUCAGUAUAACCUAGAATT against Catsper2,inactive: -0.59
18,GCUGACAAUACUGAAUUGGTT against Pkhd1l1,inactive: 1.32
19,GCACCAGCCCUAUAAACUGTT against 1200004M23Rik,inactive: 0.873
20,GGAAGAAGUACCCAUGCAATT against Olfr64,inactive: -1.3
21,GGUGCAUUAUAAGAAUCGCTT against Fhl1,inactive: 1.1
22,GGAGCAUUUUAUUCAGAUGTT against Rad23b,inactive: -2.04
23,GGACUAUCUCAUCGGAACCTT against 4930403O06Rik,inactive: 0.342
24,GGCUCUUCGAGACUUUGAGTT against D130016K21Rik,inactive: -2.73
25,GGAAAACCUUGGACAGGAGTT against Olfr876,inactive: -1.75
26,GCCAGGAAUAGUGAUUAUUTT against Atp11c,inactive: -1.15
